Among the data in PMC4058079 are binding values, retold here.

By UniProt entry, the sequences of proteins in these tests, tags left out. Residues count along the entry.
UniProt P29317, residues 24-976: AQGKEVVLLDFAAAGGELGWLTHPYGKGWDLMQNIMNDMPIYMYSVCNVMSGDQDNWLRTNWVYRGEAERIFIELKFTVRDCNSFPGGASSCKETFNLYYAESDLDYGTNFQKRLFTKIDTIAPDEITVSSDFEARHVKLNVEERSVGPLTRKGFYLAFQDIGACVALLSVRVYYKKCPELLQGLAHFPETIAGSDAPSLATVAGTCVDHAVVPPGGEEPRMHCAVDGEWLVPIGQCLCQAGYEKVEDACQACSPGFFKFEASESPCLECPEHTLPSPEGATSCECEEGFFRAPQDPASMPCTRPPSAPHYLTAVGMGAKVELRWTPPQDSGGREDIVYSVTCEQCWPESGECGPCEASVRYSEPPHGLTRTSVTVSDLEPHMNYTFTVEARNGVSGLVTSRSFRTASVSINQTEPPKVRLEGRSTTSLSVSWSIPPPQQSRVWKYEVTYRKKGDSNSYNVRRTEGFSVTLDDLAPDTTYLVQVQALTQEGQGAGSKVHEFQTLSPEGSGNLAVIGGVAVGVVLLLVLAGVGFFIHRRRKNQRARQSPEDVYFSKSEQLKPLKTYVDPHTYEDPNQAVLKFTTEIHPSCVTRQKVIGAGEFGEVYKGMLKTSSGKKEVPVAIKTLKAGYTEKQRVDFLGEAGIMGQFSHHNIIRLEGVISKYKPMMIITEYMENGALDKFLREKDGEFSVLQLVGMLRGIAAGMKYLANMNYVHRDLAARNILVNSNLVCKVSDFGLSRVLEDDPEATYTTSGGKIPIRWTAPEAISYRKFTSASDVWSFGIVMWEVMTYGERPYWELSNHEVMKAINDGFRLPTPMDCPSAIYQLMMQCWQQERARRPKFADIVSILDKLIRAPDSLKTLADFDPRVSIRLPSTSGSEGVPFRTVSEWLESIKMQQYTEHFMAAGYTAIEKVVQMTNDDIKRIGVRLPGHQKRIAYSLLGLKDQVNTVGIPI
UniProt P54764, residues 20-986: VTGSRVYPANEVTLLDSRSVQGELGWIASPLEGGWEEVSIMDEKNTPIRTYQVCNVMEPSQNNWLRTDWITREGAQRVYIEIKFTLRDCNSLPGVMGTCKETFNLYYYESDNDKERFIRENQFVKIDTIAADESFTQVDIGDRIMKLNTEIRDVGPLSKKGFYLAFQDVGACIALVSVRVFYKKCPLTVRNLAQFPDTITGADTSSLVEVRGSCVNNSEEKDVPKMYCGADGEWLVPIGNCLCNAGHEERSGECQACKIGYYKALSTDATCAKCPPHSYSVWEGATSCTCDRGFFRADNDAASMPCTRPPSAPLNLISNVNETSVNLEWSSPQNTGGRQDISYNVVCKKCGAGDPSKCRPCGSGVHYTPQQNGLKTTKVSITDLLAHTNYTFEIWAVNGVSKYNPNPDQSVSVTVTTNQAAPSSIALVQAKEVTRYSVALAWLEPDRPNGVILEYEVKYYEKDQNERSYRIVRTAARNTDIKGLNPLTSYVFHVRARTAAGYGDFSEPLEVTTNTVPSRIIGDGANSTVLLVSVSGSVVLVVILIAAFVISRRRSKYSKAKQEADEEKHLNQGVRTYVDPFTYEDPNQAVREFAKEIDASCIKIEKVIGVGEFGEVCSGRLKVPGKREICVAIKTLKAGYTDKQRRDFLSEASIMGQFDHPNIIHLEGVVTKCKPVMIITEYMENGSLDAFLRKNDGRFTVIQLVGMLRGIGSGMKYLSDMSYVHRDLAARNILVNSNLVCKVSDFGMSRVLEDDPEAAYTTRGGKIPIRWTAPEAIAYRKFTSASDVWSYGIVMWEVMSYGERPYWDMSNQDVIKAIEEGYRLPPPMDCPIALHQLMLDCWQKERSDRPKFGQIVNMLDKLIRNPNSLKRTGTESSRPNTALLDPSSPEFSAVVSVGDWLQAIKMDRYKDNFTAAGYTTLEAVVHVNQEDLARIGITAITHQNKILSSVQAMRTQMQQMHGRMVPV

This test addresses T1, Vav2 (human (endogenous in PC-3)) (UniProt P52735).
T1 sequence: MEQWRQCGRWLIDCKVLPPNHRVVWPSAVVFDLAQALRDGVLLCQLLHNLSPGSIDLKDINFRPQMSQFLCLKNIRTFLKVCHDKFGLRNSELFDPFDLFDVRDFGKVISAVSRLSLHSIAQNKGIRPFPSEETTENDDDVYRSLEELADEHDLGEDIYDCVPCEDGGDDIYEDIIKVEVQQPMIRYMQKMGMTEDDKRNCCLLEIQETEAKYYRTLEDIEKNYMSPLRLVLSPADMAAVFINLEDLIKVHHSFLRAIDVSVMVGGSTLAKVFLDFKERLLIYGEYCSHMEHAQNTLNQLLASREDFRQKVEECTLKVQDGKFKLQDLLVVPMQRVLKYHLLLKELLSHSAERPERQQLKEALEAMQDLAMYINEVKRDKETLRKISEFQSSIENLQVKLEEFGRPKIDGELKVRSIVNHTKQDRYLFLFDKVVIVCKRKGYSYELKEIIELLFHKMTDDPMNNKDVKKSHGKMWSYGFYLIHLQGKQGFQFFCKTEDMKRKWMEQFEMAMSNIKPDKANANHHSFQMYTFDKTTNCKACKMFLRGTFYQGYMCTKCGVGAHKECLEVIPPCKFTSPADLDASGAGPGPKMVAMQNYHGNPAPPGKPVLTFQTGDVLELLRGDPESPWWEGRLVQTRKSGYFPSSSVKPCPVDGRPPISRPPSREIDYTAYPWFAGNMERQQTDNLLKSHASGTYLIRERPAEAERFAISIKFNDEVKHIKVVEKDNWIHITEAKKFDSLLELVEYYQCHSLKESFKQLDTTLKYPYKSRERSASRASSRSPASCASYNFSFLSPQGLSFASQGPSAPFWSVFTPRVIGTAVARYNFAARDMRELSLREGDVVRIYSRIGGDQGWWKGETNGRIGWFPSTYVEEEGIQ
Put plainly: co-IP; endogenous Vav2 immunoprecipitated (anti-Vav2, Protein A Sepharose, 4°C overnight) from lysates of PC-3 cells treated with clustered ephrin-A5/Fc or Fc control; lysis buffer 125 mM NaCl, 20 mM Tris pH 7.4, 1% Igepal CA-630, 10% glycerol, with sodium orthovanadate; blotted for EphA2 and EphA4.

These are yes or no findings as the source states them, for the method shown. Binding seen in cells or lysates may run through a third protein. Some results given as binding are weak or reduced against the parent protein; the word gives no strength.

Regarding “EphA2 (from UniProt P29317 24-976) (receptor)”, the binding result is “binds”. In the case of “EphA4 (from UniProt P54764 20-986) (receptor)”, the binding entry is reported as “binds”.
